According to US5500807A, “Selection method for pharmacologically active compounds” (The Regents of the University of California, priority 1992, dated 1996):

Tested on: nuclear thyroid hormone receptors (rat liver)
Details: variety of solubilized receptor preparations (liver, brain, GC cells); single class of sites; FIG. 5

## CCCCc1oc2ccccc2c1C(=O)c1cc(I)c(OCCN(CC)CC)c(I)c1 [amiodarone, 2-butyl-3-[3,5-diiodo-4-(β-diethylaminoethoxy)-benzoyl]benzofuran]
  concentrations at which competition with T3 for binding was dose-dependent: 10^-7 to 10^-4 M
